Results taken from publication PMC9715692.
Results are given in words; binding and its absence hold for the method and conditions named. Some results given as binding are weak or reduced against the parent protein; the word gives no strength.

Chains of the proteins cited; added tags and fusions are not shown. Residues count along the entry.
UniProt P9WJU0: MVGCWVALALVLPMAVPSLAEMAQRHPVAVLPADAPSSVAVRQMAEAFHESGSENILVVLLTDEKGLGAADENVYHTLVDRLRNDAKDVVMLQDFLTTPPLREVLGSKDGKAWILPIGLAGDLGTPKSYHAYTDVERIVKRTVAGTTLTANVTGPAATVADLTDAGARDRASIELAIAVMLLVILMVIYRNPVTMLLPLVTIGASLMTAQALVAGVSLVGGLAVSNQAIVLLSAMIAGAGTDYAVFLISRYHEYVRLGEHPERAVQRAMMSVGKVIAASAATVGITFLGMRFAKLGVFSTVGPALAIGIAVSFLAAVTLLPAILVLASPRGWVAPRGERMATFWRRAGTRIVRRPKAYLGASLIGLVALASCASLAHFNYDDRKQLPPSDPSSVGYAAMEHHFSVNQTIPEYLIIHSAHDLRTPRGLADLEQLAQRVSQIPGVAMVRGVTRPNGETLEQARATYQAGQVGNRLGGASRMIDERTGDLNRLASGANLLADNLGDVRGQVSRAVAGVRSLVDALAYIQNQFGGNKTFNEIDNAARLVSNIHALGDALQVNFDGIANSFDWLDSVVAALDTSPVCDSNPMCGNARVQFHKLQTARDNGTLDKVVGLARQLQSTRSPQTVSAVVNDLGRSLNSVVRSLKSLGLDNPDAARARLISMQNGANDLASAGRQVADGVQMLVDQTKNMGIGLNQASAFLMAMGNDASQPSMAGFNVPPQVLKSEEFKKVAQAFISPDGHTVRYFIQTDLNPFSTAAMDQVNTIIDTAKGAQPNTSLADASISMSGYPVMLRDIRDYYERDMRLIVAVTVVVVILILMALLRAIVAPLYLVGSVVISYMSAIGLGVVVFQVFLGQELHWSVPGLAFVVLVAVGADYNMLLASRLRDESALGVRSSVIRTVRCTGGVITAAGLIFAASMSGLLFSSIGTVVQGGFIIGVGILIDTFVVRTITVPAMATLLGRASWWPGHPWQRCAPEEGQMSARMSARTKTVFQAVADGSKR
UniProt P01375, residues 77-233: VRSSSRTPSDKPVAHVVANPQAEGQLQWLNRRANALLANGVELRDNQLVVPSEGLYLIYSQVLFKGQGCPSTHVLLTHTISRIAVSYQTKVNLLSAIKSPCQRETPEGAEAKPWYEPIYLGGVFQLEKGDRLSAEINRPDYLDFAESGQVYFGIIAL
UniProt P01579, residues 24-161: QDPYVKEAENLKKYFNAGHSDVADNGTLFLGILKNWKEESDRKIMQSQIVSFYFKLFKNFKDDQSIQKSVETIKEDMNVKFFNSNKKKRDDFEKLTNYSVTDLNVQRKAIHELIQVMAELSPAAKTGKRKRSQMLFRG

Tests used:
[1] = molecular target: mycobacterium membrane protein large 10 (MmpL10) of Mtb H37Rv (Mycobacterium tuberculosis H37Rv (endogenous)) (UniProt P9WJU0); experiment: flow cytometry on cells; whole bacteria fixed in 4% PFA mixed with varying concentrations of cytokine overnight at 4 °C; pellets stained with anti-IFN-γ Brilliant Violet 421 (clone 4S.B3) or anti-TNF-α Alexa Fluor 700 (clone MAb11); only the binder purified
[2] = molecular target: mycobacterium membrane protein large 10 (MmpL10) of Mtb H37Rv (Mycobacterium tuberculosis H37Rv (endogenous)) (UniProt P9WJU0); experiment: far-Western, overlay or dot blot; whole cell lysate separated on a non-denaturing polyacrylamide gel without SDS, transferred to PVDF, incubated with 5 μg IFN-γ overnight at 4 °C, detected with anti-human IFN-γ antibody; for Mtb H37Rv the matching band of the Coomassie-stained gel was analysed by LC-MS/MS; only the binder purified

Row | Substance | binding [1] | binding [2]
1 | recombinant human TNF-α (from UniProt P01375 77-233) (ligand) | no binding | –
2 | recombinant human Interferon-γ (from UniProt P01579 24-161) (ligand) | binds | binds
